Binding data for one molecule are collected here from PMC8938451.

For this assay, the target named is RUFY2-FLAG (human). As to the kind of experiment: co-IP; lysates of HEK293T cells transfected with FLAG-tagged proteins, anti-FLAG magnetic agarose overnight at 4 °C (25 mM Tris-HCl pH 7.4, 0.15 M NaCl, 1 mM EDTA, 1% NP-40, 5% glycerol); immunoblot for endogenous ARL8A and ARL8B.

These are yes or no findings as the source states them, for the method shown. In cells and extracts the contact can be indirect.

B1: ARL8A, endogenous (protein, UniProt Q96BM9 1-186)
chain: MIALFNKLLDWFKALFWKEEMELTLVGLQYSGKTTFVNVIASGQFNEDMIPTVGFNMRKITKGNVTIKLWDIGGQPRFRSMWERYCRGVSAIVYMVDAADQEKIEASKNELHNLLDKPQLQGIPVLVLGNKRDLPGALDEKELIEKMNLSAIQDREICCYSISCKEKDNIDITLQWLIQHSKSRRS
B1: the binding result is listed as “no binding”.
